Literature values in US12661364B2, “Remedy for hair growth enhancing” (GURUS BIOPHARM INC., priority 2019, dated 2026).
For at least one compound, name, drawing or mass did not settle the structure.

System: women
Conditions: 2% minoxidil, after 8 months of use (placebo 7%); cited from earlier work

## Nc1cc(N2CCCCC2)nc(N)[n+]1[O-] [minoxidil]
  Women who noted moderate hair growth: 19%
